Reference: the supplement of paper PMC11732987, “Enantioselective OTUD7B fragment discovery through chemoproteomics screening and high-throughput optimisation” (Communications Chemistry, 2025)
The other results are listed elsewhere or left out. The data scatter; read single values as rough.

Chains of the proteins cited; added tags and fusions are not shown. Lines headed by an entry give the natural chain unless they say otherwise; changes in a name come on top. Residues count along the entry.
UniProt P23921, 657-677: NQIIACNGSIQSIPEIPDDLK
UniProt Q5JTH9: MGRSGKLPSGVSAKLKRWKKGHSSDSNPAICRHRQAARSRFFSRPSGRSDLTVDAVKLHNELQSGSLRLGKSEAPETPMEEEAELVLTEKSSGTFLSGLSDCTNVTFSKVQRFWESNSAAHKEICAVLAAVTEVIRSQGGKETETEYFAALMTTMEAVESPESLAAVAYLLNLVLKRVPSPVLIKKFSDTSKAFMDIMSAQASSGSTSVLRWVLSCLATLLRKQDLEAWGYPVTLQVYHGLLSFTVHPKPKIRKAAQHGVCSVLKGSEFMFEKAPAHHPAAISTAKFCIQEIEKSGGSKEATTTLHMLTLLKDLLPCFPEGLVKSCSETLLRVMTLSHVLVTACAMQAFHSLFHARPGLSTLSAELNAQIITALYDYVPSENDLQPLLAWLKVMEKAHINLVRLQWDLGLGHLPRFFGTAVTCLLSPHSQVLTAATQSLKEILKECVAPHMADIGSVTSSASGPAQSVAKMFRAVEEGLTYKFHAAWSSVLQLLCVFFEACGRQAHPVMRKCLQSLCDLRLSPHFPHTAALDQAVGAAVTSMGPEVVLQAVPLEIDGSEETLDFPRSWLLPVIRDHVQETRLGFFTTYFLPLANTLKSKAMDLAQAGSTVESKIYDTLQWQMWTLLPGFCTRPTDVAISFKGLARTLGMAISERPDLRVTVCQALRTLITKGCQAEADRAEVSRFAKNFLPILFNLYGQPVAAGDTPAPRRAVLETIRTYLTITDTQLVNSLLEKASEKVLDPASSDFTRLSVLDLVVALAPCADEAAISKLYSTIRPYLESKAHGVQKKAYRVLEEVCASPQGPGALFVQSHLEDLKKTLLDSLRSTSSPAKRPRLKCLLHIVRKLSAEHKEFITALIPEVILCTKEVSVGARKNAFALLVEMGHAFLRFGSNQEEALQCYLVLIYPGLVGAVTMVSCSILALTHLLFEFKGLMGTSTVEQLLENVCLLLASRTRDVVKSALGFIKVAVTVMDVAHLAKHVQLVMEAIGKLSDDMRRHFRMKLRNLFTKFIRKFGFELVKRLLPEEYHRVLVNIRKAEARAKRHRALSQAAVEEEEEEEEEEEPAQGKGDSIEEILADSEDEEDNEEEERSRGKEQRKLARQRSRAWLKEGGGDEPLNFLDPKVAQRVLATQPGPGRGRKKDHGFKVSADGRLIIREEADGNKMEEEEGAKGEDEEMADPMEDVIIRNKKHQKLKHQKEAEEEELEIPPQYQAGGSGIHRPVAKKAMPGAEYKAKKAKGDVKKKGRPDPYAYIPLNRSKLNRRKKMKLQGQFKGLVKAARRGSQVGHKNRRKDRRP
UniProt Q9NZJ4: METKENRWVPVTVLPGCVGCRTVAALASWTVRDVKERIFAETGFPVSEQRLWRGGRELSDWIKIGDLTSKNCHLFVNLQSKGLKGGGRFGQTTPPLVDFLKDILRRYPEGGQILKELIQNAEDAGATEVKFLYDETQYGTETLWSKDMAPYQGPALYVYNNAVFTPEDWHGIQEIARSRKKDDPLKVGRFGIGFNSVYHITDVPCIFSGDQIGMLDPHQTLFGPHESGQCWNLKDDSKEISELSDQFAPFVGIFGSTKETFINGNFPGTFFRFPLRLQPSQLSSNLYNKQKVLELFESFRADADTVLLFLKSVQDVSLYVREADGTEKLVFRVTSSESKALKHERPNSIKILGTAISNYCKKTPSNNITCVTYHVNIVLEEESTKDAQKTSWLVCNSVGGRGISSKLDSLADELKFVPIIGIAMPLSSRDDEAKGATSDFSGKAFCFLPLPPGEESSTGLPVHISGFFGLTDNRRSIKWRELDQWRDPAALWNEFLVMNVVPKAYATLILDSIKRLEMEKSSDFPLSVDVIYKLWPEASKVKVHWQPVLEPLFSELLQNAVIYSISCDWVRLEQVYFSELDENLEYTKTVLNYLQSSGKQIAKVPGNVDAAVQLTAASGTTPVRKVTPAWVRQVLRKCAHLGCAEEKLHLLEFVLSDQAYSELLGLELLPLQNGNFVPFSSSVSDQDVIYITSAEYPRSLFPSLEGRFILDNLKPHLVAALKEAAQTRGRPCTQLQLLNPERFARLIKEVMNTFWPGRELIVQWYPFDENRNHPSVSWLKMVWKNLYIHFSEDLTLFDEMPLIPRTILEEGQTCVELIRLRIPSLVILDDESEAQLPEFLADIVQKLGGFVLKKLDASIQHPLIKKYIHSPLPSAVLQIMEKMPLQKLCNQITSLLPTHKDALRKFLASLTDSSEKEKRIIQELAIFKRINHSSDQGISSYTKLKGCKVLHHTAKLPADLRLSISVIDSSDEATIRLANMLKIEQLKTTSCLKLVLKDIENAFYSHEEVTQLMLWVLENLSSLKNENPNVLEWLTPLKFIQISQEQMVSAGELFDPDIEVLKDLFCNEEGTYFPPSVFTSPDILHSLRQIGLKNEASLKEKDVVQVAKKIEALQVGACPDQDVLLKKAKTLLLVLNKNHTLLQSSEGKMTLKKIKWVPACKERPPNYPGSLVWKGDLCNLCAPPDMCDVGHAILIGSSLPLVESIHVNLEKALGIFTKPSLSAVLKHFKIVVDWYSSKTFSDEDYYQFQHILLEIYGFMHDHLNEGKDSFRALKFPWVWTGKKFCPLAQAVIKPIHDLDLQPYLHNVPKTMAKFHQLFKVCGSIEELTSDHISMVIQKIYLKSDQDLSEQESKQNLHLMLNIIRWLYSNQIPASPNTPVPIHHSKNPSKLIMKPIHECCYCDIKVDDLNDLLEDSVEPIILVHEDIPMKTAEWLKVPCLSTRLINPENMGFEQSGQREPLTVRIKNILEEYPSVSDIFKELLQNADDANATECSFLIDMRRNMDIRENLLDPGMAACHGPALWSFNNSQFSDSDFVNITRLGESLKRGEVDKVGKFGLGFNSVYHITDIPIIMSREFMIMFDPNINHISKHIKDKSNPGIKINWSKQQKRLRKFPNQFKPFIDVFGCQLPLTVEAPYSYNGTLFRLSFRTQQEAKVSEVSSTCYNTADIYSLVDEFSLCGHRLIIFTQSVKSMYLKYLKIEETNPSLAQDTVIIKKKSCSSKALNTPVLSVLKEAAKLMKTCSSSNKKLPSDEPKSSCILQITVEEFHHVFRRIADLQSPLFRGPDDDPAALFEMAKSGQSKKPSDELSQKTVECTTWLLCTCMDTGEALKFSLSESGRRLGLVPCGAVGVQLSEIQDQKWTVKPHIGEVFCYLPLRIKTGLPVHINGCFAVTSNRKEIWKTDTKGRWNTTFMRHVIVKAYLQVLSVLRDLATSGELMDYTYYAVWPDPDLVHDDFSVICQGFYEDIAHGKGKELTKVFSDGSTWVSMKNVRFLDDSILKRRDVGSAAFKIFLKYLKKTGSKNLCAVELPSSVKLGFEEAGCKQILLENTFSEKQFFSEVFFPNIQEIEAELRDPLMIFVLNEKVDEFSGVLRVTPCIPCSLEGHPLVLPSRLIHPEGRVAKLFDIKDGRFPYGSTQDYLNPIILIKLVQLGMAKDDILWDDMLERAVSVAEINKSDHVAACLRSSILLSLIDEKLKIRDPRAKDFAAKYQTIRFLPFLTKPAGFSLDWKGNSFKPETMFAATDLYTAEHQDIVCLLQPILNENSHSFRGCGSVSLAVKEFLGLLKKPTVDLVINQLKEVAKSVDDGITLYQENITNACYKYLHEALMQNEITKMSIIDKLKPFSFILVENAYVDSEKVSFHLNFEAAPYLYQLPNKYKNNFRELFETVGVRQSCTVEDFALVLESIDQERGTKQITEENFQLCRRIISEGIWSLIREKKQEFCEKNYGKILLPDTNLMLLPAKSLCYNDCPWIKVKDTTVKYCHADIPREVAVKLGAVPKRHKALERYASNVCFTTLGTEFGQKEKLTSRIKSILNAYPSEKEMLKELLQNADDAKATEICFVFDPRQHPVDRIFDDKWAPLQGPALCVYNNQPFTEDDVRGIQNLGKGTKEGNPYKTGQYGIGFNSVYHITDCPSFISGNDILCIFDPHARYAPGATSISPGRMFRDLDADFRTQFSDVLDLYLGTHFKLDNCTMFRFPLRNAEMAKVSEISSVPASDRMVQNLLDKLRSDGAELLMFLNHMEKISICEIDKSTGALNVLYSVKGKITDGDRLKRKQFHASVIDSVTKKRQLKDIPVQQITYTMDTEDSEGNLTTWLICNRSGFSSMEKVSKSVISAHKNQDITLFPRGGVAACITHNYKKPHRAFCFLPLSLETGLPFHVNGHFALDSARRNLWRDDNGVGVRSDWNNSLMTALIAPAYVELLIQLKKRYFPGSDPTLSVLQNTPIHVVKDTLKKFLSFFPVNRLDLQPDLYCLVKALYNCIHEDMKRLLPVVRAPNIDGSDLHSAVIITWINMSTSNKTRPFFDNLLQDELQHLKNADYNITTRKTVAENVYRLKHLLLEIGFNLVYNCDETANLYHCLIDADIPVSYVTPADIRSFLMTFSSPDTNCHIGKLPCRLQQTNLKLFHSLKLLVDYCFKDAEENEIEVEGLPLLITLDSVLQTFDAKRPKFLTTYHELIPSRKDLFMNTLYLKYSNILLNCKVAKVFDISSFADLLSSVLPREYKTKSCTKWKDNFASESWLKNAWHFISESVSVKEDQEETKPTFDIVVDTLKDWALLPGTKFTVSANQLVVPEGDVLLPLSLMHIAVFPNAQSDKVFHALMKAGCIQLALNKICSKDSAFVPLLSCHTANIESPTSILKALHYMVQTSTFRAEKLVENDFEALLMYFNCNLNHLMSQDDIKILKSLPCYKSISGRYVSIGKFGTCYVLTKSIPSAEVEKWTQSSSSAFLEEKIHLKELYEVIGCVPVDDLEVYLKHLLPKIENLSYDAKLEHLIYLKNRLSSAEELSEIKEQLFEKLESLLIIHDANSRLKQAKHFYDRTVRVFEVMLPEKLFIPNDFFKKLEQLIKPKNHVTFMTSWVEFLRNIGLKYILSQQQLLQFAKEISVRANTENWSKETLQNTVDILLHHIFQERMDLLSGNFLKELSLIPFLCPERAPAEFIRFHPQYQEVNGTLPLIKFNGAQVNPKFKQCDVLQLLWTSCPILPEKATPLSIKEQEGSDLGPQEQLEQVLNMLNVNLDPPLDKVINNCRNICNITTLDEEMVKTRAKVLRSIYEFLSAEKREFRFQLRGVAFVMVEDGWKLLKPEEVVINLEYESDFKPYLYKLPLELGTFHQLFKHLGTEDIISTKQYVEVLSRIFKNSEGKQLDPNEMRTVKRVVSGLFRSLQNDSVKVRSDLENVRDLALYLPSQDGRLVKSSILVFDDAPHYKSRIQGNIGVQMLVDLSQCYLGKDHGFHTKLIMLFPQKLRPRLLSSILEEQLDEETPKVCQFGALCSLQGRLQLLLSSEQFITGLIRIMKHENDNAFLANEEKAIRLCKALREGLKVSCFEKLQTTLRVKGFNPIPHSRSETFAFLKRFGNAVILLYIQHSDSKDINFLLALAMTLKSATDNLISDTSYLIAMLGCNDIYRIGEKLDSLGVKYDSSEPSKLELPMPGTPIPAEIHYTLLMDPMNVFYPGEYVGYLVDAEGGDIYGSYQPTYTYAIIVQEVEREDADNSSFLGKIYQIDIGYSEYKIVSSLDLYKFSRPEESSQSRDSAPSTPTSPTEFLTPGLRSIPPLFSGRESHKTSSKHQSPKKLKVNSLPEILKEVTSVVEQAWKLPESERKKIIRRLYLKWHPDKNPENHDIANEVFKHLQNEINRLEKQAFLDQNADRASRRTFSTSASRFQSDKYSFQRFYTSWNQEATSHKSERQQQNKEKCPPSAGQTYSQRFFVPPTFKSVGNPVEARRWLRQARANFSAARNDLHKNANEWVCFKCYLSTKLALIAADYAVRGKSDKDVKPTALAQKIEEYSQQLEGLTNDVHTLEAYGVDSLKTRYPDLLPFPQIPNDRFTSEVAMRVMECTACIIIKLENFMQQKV
UniProt Q15050: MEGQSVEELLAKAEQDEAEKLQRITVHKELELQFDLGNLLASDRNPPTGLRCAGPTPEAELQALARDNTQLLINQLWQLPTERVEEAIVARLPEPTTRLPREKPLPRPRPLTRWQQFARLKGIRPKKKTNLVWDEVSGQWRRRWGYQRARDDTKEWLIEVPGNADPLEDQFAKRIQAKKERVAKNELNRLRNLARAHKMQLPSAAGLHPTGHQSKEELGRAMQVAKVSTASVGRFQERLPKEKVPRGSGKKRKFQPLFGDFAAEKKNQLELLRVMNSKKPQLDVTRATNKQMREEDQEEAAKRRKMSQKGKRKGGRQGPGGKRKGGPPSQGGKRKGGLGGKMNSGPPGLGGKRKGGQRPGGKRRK
UniProt Q9UBF6, 2-23: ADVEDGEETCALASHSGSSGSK
UniProt Q9Y224: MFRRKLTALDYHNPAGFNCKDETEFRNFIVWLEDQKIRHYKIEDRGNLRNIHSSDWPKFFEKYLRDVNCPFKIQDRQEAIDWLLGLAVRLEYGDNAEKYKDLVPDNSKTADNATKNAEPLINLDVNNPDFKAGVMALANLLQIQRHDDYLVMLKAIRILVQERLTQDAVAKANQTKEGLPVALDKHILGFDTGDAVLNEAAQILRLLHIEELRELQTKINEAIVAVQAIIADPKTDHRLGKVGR
UniProt Q9HB90, 25-63: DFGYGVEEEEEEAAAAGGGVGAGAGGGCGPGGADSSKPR
UniProt Q8IXW5, 160-187: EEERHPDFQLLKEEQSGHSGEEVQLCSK

Experiments:
[1] = compound: ClCC(=O)N[C@@H]1CCCc2ccccc12; assay: log2 mean competition ratio of IA-DTB cysteine labelling (DMSO/compound) (log2 ratio); higher = stronger cysteine engagement by compound; settings: treatment time: 4 h, cell line lysate: HEK293T
Method: (§1)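 IA-DTB competitive cysteine chemoproteomics in HEK293T RIPA lysate. Lysates were treated with compound 29 or 30 at 50 or 200 µM for 4 h, then IA-DTB (500 µM, 1 h), trypsin-digested, NeutrAvidin-enriched and analysed by diaPASEF. Competition ratio = intensity DMSO / intensity compound (n=4 treated, n=64 DMSO); binding: mean log2 CR ≥ 1 and p ≤ 0.05 plus QC filters. Target is the cysteine site.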

[2] = compound: ClCC(=O)N[C@H]1CCCc2ccccc12; assay: as above; settings: treatment time: 4 h, cell line lysate: HEK293T
Method: as §1

Row | Target | log2 mean competition ratio ([1]; 50 µM) | log2 mean competition ratio ([1]; 200 µM) | log2 mean competition ratio ([2]; 200 µM) | log2 mean competition ratio ([2]; 50 µM)
1 | RPA1 C503 (UniProt P27694) | -0.173 | -0.233 |  | 
2 | RNASEL C301 (UniProt Q05823) | 0.175 | 0.0979 | 0.225 | 
3 | RPAP1 C185 (UniProt Q9BWH6) | -0.404 | 0.189 | 0.144 | 0.166
4 | RRM1 C779 (UniProt P23921) | -0.0747 | 0.236 |  | 
5 | RNF169 C28 (UniProt Q8NCN4) | -0.228 | 0.227 |  | 
6 | RPAP3 C155 (UniProt Q9H6T3) | -0.0222 | -0.258 | -0.102 | -0.119
7 | RNASEL C639 (UniProt Q05823) | 0.0431 | 0.0403 |  | 
8 | RNF123 C1180 (UniProt Q5XPI4) | -0.169 | 0.0449 | 0.297 | -0.134
9 | RNGTT C375 (UniProt O60942) | -0.304 | -0.115 | 0.289 | 
10 | ROCK2 C649 (UniProt O75116) | -0.12 | 0.0936 |  | 
11 | RRP12 C317 (UniProt Q5JTH9) | 0.189 | -0.54 |  | 
12 | SACS C1118 (UniProt Q9NZJ4) | -0.0856 | -0.0655 |  | 
13 | RPS6KA2 C514 (UniProt Q15349) | -0.176 | -0.43 | -0.19 | 
14 | RPL27A C70 (UniProt P46776) | 0.327 | -0.144 | 0.00118 | 0.649
15 | RNF40 C890 (UniProt O75150) | 0.235 | 0.234 | 0.0923 | 0.183
16 | RPAP3 C304 (UniProt Q9H6T3) | 0.0989 | 0.104 | 0.206 | 0.174
17 | SACS C3655 (UniProt Q9NZJ4) | 0.166 | -0.602 | 0.0712 | -0.225
18 | RRS1 C52 (UniProt Q15050) | 0.23 | 0.251 | 0.131 | -0.0463
19 | RNF169 C337 (UniProt Q8NCN4) | 0.14 | 0.273 | 0.12 | -0.308
20 | RTTN C753 (UniProt Q86VV8) | 0.0907 | 0.212 | 0.183 | 0.28

Row | Target | log2 mean competition ratio ([1]; 50 µM) | log2 mean competition ratio ([1]; 200 µM) | log2 mean competition ratio ([2]; 200 µM) | log2 mean competition ratio ([2]; 50 µM)
21 | RPL12 C141 (UniProt P30050) | -0.145 | -0.194 | -0.234 | 0.193
22 | RNF213 C310 | -0.35 | 0.557 | 0.519 | -0.119
23 | RRP1 C274 (UniProt P56182) | -0.0067 | 0.0774 | 0.0566 | -0.0925
24 | RNF7 C11 (UniProt Q9UBF6) | -0.405 | -0.114 | -0.166 | -0.0191
25 | RXRB C265 (UniProt P28702) | -0.0249 | -0.0104 | -0.0306 | -0.279
26 | RNF213 C3330 | 0.203 | 0.0627 | 0.107 | 0.134
27 | RPL34 C83 (UniProt P49207) | 0.0741 | -0.36 | -0.165 | 0.414
28 | RND3 C125 | 0.00758 | -0.447 | -0.246 | 0.0659
29 | SACS C3756 (UniProt Q9NZJ4) | 0.539 | -0.191 | 0.00713 | 0.397
30 | RNF14 C270 (UniProt Q9UBS8) | -0.425 | -0.0521 | -0.0141 | -0.427
31 | RNF31 C473 (UniProt Q96EP0) | -0.0795 | -0.245 | -0.259 | -0.117
32 | RTN4RL2 C310 (UniProt Q86UN3) | -0.403 | 0.0771 | 0.387 | 0.0754
33 | ROCK2 C428 (UniProt O75116) | 0.177 | 0.295 | 0.353 | 0.509
34 | ROGDI C66 (UniProt Q9GZN7) | -0.367 | -0.0978 | 0.267 | 0.245
35 | RPL23 C28 (UniProt P62829) | 0.143 | 0.139 | -0.0291 | 0.0472
36 | RPTOR C505 (UniProt Q8N122) | -0.208 | -0.107 | -0.113 | -0.371
37 | RPS3 C97 | 0.0225 | -0.101 | 0.017 | 0.0288
38 | RPRD1A C100 (UniProt Q96P16) | -0.071 | 0.159 | 0.0866 | -0.0431
39 | RPS6KB1 C240 (UniProt P23443) | 0.201 | 0.407 | 0.623 | 0.505
40 | RUFY3 C385 (UniProt Q7L099) | -0.0225 | -0.336 | -0.478 | -0.407

Row | Target | log2 mean competition ratio ([1]; 50 µM) | log2 mean competition ratio ([1]; 200 µM) | log2 mean competition ratio ([2]; 200 µM) | log2 mean competition ratio ([2]; 50 µM)
41 | RTRAF C69 (UniProt Q9Y224) | -0.13 | -0.313 | -0.133 | -0.0712
42 | RRAGC C52 (UniProt Q9HB90) | -0.675 | 0.0915 | 0.0931 | -0.223
43 | RNF213 C3554 | 0.0889 | 0.389 | 0.446 | -0.0869
44 | RRBP1 C1038 (UniProt Q9P2E9) | -0.0234 | 0.0223 | 0.0275 | -0.562
45 | RRP1B C197 (UniProt Q14684) | -0.0554 | 0.369 | 0.293 | -0.333
46 | RNF213 C1748 | 0.0769 | 0.189 | 0.187 | 0.0237
47 | RSBN1L C818 (UniProt Q6PCB5) | -0.0604 | 0.00129 | -0.151 | 0.0617
48 | RPL12 C162 (UniProt P30050) | -0.14 | 0.126 | -0.0308 | -0.0731
49 | RPL24 C36 (UniProt P83731) | 0.231 | -0.056 | 0.0262 | 0.312
50 | RNPC3 C420 (UniProt Q96LT9) | -0.111 | 0.482 | 0.177 | 0.333
51 | RPAP2 C185 (UniProt Q8IXW5) | -0.125 | 0.134 | -0.0587 | -0.403
52 | RREB1 C1242 (UniProt Q92766) | 0.479 | -0.0605 | 0.312 | 0.275
53 | RRM1 C662 (UniProt P23921) | -0.113 | -0.713 | -0.605 | 0.142
54 | RNF10 C366 (UniProt Q8N5U6) | 0.169 | 0.176 | 0.0741 | 0.308
55 | RRP12 C261 (UniProt Q5JTH9) | 0.415 | 0.239 | 0.196 | 0.569
56 | RPS2 C229 (UniProt P15880) | 0.504 | -0.215 | -0.0715 | 0.501
57 | RTF2 C3 (UniProt Q9BY42) | -0.126 | 0.0152 | 0.0737 | 0.119
58 | RPN2 C72 (UniProt P04844) | 0.343 | 0.00186 | -0.163 | 0.253
59 | RSBN1L C595 (UniProt Q6PCB5) | 0.0347 | -0.126 | -0.0596 | 0.0335
60 | RNF213 C4397 | 0.0339 | -0.252 | -0.102 | -0.108

Part of the list above, tab-delimited:
Row	Target	log2 mean competition ratio ([1]; 50 µM)	log2 mean competition ratio ([1]; 200 µM)	log2 mean competition ratio ([2]; 200 µM)	log2 mean competition ratio ([2]; 50 µM)
55	RRP12 C261 (UniProt Q5JTH9)	0.415	0.239	0.196	0.569
56	RPS2 C229 (UniProt P15880)	0.504	-0.215	-0.0715	0.501
